Measured values published in the supplement of paper PMC10849652.
Some of the results follow.

Chains of the proteins cited; added tags and fusions are not shown. Lines headed by an entry give the natural chain unless they say otherwise; changes in a name come on top.
UniProt Q9H977: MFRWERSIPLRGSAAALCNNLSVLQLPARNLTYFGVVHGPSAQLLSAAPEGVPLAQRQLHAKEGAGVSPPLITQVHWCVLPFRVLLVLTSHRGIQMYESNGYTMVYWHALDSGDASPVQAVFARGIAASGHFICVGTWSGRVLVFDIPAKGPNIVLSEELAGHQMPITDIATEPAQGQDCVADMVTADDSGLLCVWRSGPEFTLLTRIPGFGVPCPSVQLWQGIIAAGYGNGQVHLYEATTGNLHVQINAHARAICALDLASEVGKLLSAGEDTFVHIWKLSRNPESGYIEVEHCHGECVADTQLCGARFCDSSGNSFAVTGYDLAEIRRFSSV
UniProt A5D8V6: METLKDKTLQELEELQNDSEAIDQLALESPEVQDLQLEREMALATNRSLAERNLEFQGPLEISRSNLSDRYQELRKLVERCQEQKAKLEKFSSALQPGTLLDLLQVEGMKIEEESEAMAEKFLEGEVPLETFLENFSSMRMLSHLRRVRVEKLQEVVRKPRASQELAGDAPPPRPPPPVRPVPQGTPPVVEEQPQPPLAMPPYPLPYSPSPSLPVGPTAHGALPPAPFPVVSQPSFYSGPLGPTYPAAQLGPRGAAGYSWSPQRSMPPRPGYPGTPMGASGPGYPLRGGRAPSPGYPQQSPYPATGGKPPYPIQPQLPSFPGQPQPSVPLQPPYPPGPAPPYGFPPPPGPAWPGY
UniProt Q9H967: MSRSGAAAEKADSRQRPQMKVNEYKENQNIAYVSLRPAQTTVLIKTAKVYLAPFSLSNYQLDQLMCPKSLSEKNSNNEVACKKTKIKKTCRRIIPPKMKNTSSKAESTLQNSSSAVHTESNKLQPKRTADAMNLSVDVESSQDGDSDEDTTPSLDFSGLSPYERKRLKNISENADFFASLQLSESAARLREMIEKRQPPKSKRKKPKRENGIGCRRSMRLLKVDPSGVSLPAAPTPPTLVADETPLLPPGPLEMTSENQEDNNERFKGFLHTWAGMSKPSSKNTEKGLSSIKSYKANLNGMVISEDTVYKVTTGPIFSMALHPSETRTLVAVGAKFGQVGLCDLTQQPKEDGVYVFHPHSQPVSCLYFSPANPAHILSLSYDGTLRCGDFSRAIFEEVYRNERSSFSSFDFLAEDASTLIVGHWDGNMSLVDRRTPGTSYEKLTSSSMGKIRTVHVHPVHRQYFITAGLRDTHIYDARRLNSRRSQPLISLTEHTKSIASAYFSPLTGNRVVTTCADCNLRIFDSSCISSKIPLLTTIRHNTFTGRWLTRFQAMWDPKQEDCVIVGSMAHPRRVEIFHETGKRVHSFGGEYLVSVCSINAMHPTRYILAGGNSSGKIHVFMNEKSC
UniProt Q9NX94: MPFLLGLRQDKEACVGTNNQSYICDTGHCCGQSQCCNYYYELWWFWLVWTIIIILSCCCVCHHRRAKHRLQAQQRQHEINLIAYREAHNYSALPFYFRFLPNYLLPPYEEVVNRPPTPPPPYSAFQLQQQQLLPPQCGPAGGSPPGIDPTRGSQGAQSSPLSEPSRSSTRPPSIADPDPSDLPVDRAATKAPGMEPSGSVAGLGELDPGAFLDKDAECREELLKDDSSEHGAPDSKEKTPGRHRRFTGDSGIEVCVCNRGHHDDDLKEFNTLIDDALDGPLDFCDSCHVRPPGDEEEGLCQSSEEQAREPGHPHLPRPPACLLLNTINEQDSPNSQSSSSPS
UniProt Q9Y6I7: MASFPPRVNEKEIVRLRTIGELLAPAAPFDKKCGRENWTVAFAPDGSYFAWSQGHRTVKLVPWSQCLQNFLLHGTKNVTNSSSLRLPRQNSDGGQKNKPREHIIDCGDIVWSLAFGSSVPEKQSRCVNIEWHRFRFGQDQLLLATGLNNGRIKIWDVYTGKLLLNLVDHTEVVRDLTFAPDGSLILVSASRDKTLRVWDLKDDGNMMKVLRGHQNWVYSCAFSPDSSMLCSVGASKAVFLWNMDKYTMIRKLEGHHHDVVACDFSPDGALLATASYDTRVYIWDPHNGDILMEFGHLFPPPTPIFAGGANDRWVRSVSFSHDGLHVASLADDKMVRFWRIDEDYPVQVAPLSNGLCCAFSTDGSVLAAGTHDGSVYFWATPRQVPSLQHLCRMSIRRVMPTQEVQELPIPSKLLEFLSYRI
UniProt Q8NEZ3: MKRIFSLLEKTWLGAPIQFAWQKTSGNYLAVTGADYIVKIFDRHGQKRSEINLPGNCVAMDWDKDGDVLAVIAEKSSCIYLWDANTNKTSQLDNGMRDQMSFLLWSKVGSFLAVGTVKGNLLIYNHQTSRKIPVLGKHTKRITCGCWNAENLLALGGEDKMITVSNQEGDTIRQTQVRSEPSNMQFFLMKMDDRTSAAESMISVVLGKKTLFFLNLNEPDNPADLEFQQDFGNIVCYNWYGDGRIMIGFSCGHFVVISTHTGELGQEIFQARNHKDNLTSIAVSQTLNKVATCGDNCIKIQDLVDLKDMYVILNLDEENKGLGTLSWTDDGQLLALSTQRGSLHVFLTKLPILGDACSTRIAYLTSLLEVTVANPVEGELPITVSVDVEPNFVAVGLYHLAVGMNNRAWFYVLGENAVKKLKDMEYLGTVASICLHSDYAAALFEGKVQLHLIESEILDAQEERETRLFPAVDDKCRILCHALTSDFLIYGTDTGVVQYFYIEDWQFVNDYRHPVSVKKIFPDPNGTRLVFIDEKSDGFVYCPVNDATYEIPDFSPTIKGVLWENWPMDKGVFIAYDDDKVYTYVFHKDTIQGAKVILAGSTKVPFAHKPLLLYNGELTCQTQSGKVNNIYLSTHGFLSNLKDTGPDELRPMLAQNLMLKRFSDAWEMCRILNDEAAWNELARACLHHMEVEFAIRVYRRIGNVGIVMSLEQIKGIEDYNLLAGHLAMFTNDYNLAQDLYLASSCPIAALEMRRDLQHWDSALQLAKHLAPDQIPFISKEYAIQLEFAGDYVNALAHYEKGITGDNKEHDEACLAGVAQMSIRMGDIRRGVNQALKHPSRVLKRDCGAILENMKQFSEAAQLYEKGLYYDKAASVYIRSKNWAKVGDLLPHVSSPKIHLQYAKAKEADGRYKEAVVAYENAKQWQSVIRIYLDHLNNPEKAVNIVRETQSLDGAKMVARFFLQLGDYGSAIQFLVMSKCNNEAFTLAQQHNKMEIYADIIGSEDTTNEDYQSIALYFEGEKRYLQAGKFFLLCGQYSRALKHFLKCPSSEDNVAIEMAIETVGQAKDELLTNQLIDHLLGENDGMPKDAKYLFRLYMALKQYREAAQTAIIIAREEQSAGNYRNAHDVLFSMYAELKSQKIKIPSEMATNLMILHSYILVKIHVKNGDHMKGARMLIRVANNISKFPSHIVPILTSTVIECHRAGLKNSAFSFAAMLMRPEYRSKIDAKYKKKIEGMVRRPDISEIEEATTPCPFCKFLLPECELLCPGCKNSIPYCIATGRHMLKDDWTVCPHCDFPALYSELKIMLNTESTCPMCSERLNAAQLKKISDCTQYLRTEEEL
UniProt Q9BRX9: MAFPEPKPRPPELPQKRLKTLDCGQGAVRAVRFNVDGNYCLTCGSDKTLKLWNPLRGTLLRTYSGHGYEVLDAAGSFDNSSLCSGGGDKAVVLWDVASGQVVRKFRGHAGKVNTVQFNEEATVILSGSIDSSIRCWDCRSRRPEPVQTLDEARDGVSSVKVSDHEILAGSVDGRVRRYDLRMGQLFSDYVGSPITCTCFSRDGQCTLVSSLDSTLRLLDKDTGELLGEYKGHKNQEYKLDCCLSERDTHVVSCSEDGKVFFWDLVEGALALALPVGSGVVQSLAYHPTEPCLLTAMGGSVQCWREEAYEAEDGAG
UniProt P04275, whole entry, looked up: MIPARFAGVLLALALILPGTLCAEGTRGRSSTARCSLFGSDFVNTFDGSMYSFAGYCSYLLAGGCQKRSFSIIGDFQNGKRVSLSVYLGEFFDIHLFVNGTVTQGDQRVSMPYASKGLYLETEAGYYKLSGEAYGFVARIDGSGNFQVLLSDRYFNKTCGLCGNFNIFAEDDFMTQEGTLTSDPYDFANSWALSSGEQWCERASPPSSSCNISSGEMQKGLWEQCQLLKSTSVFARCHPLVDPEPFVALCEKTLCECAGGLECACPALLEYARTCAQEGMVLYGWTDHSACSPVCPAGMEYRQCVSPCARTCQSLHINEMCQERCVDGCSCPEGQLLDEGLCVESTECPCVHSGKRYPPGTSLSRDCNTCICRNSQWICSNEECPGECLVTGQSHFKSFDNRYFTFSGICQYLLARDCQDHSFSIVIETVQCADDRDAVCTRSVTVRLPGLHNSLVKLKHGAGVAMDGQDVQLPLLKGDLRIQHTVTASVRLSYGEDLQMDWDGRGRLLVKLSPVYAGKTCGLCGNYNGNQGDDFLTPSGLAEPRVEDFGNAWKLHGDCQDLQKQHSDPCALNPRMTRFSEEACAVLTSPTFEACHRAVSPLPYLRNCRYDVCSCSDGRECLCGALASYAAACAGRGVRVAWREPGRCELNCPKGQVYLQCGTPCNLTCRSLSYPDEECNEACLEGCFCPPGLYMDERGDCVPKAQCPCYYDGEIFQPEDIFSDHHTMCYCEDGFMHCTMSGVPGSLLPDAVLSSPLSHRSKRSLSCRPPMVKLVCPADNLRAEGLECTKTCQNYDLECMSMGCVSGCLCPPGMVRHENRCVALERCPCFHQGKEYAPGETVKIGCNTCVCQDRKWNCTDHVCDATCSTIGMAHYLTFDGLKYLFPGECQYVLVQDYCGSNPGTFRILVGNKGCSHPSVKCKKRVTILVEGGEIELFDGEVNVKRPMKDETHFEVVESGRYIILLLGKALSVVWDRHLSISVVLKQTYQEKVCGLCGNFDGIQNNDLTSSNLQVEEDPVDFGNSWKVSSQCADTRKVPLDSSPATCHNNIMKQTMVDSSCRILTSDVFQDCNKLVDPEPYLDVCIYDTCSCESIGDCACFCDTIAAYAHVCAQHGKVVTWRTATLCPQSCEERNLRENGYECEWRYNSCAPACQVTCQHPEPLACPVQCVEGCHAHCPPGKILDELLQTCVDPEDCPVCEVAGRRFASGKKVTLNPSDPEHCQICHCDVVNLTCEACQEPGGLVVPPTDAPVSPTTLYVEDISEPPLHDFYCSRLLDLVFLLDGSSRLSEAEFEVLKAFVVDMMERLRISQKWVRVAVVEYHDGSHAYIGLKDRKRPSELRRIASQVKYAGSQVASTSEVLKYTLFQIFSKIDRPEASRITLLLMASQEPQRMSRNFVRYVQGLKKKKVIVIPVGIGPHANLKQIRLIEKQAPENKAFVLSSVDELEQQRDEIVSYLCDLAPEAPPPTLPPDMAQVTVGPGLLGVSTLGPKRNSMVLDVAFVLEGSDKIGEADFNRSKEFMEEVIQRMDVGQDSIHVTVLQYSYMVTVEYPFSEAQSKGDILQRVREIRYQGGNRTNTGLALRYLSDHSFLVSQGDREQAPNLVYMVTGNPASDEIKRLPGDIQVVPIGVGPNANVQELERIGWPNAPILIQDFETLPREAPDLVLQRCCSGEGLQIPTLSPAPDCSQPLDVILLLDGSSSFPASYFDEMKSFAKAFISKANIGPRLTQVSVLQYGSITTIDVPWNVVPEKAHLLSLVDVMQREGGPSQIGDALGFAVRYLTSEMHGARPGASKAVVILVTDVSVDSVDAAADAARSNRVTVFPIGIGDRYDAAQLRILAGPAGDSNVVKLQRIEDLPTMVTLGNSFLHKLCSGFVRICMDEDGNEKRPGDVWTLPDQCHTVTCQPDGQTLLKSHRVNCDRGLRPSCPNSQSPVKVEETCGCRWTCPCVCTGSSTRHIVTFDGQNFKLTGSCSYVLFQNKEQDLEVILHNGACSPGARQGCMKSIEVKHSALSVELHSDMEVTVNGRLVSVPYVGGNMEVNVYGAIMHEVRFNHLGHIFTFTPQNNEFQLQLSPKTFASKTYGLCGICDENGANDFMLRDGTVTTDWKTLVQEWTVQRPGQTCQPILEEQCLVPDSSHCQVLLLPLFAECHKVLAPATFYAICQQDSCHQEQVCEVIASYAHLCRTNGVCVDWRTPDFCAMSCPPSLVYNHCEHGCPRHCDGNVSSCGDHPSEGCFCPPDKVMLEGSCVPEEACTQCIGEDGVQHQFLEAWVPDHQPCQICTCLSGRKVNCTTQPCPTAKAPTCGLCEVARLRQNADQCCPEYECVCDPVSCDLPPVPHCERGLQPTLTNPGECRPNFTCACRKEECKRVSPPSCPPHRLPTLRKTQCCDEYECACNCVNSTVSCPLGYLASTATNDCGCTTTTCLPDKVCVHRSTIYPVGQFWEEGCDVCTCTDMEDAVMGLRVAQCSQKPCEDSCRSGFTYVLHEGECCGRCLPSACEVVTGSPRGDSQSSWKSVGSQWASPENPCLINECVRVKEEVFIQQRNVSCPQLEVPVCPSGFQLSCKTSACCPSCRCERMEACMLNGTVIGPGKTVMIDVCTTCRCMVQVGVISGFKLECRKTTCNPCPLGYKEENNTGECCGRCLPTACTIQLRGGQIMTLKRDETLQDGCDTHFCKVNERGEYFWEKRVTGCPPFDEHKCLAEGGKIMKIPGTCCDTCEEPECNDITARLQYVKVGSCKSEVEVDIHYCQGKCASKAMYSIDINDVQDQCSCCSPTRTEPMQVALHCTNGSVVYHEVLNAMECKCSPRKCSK

What was measured:
Test in all cases: log2 fold change, soluble protein after heating vs DMSO (PISA); higher = thermal stabilisation; K562 cells, 10 uM, 30 min; active = over 0.2 and 3.5 SD of the protein, either way, in both replicates (recomputed)
[1] = compound: CC1=C(C=C(C=C1)NC(=O)C2=CC(=CC=C2)N(C)C)NC(=O)C3=CC=C(C=C3)O
How it was run: (§1)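 K562 cells at 2×10^6 cells/mL were given 10 μM compound for 30 min. Aliquots then went through 3 min of heating across 48°C-58°C, were pooled, and were extracted in PBS with 0.5% NP-40 at 4°C, and the supernatant after 21,000xg for 90 min was quantified by TMTpro 16plex LC-MS/MS with channel sums equalised. Thermal stability relative to control samples, from duplicates, is given as log2 fold change.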

[2] = compound: CC1=NC(=CC=C1)C2=C(N=C(N2)C(C)(C)C)C3=CC4=NC=CN=C4C=C3
How it was run: as §1

Nexturastat A = compound: CCCCN(Cc1ccc(C(=O)NO)cc1)C(=O)Nc1ccccc1 [Nexturastat A]
How it was run: as §1

[3] = compound: CCCc1cc(C)[nH]c(=O)c1CNC(=O)c1cc(-c2ccnc(N3CCN(C)CC3)c2)cc2c1cnn2C(C)C
How it was run: as §1

epoxomicin = compound: CC[C@H](C)[C@@H](C(=O)N[C@@H]([C@@H](C)O)C(=O)N[C@@H](CC(C)C)C(=O)[C@]1(CO1)C)NC(=O)[C@H]([C@@H](C)CC)N(C)C(=O)C [epoxomicin]
How it was run: as §1

[4] = compound: CN1C2=C(C3=C1C(=O)N(N=C3)CC4=CC(=CC=C4)N)SC(=C2)S(=O)C
How it was run: as §1

[5] = compound: CC[C@H](C)N1C=C(C2=C(C=C(C=C21)C3=CN=C(C=C3)N4CCNCC4)C(=O)NCC5=C(C=C(NC5=O)C)C)C
How it was run: as §1

[6] = compound: CC1=CC=C(C=C1)SC2=C3C=C(SC3=CN=C2)C(=O)N
How it was run: as §1

vemurafenib = compound: CCCS(=O)(=O)Nc1ccc(F)c(C(=O)c2c[nH]c3ncc(-c4ccc(Cl)cc4)cc23)c1F [vemurafenib]
How it was run: as §1

[7] = compound: CCCS(=O)(=O)Nc1ccc(F)c(C(=O)c2c[nH]c3ncc(Cl)cc23)c1F
How it was run: as §1

barasertib = compound: CCN(CCCOc1ccc2c(Nc3cc(CC(=O)Nc4cccc(F)c4)[nH]n3)ncnc2c1)CCOP(=O)(O)O [barasertib]
How it was run: as §1

[8] = compound: CC[C@@H]1C(=O)N(C)c2cnc(Nc3ccc(C(=O)NC4CCN(C)CC4)cc3OC)nc2N1C1CCCC1
How it was run: as §1

volasertib = compound: CC[C@@H]1C(=O)N(C)c2cnc(Nc3ccc(C(=O)N[C@H]4CC[C@H](N5CCN(CC6CC6)CC5)CC4)cc3OC)nc2N1C(C)C [volasertib]
How it was run: as §1

[9] = compound: CN(C)CC(=O)Nc1ccc2[nH]c(=O)c3ccccc3c2c1
How it was run: as §1

rosiglitazone = compound: CN(CCOC1=CC=C(C=C1)C[C@H]2C(=O)NC(=O)S2)C3=CC=CC=N3 (racemic) [rosiglitazone]
How it was run: as §1

givinostat = compound: CCN(CC)Cc1ccc2cc(COC(=O)Nc3ccc(C(=O)NO)cc3)ccc2c1 [givinostat]
How it was run: as §1

[10] = compound: CCn1c(C(=O)N(C2CC2)C2CC2)cc2c3c(ncn3C)c(Nc3cc(C)n(C)n3)nc21
How it was run: as §1

[11] = compound: CCn1cc(-c2ccnc3[nH]c(-c4cccc(CN(C)C)c4)cc23)c(-c2ccc(NC(=O)N(C)C)cc2)n1
How it was run: as §1

[12] = compound: CN1CCC(CNc2ccc3ncc(-c4cccc(OC(F)(F)F)c4)n3n2)CC1
How it was run: as §1

[13] = compound: CC1=C(C=C(C=C1)NC(=O)C2=CC(=CC=C2)C(C)(C)C#N)NC3=CC4=C(C=C3)N=CN(C4=O)C
How it was run: as §1

Measured: log2 fold change

XAB2 (UniProt Q9HCS7)
inactive: [1] -0.027 | [2] -0.034 | Nexturastat A 0.469 | [3] 0.168 | epoxomicin 0.019 | [4] 0.026

WDR54 isoform 4 (UniProt Q9H977)
inactive: [5] 0.145 | [4] -0.233

WDR91 (UniProt A4D1P6)
inactive: [1] -0.024 | [6] -0.033 | [2] -0.059 | Nexturastat A 0.103 | vemurafenib 0.108 | [7] 0.019 | [3] 0 | barasertib -0.013 | [8] -0.067 | volasertib -0.247 | epoxomicin -0.074 | [9] -0.047 | rosiglitazone -0.048 | [4] 0.141

VPS37C (UniProt A5D8V6)
inactive: [6] -0.035 | [2] -0.046 | Nexturastat A 0.11 | vemurafenib 0.097 | [7] -0.007 | [3] 0.021 | givinostat -0.034 | barasertib -0.019 | [8] 0.01 | volasertib -0.264 | [5] 0.042 | epoxomicin -0.014 | [10] -0.016 | [11] 0.015 | [9] -0.016 | rosiglitazone 0.031 | [4] -0.041 | [12] 0.036

VNN1 (UniProt O95497)
inactive: [8] -0.153

WDR76 (UniProt Q9H967)
inactive: [6] 0.009 | Nexturastat A 0.418 | [7] 0.007 | volasertib 0.016 | epoxomicin 0.11

WDR13, A0A087X091
inactive: [2] -0.053 | [5] -0.137

WBP1L isoform 2 (UniProt Q9NX94)
inactive: barasertib -0.041 | rosiglitazone -0.138

WARS1 (UniProt G3V339)
inactive: Nexturastat A 0.188 | epoxomicin -0.238

Reprinted from the entries so far (two entries):
WBP1L isoform 2 (UniProt Q9NX94)
inactive: barasertib -0.041 | rosiglitazone -0.138

WARS1 (UniProt G3V339)
inactive: Nexturastat A 0.188 | epoxomicin -0.238

(further entries)

VGF (UniProt O15240)
inactive: [6] -0.301 | [7] -0.452 | givinostat 0.09 | barasertib -0.069 | volasertib 0.232 | [10] 0.002 | rosiglitazone -0.096

WSB1 (UniProt Q9Y6I7)
inactive: Nexturastat A -0.016 | epoxomicin 0.389

WDR4 isoform 3 (UniProt P57081)
inactive: [13] -0.041 | Nexturastat A -0.031 | barasertib 0.08 | epoxomicin 0.017 | [11] -0.044 | [12] -0.036

VPS35, A0A1W2PP10
inactive: [6] -0.098 | [2] -0.02 | Nexturastat A 0.214 | vemurafenib 0.02 | [7] -0.002 | [3] 0.136 | barasertib 0.012 | [8] -0.15 | volasertib -0.087 | [5] 0.039 | epoxomicin 0.176 | [9] -0.138 | rosiglitazone -0.078

WAC (UniProt Q9BTA9)
inactive: [6] 0.05 | [2] 0.034 | [7] 0.238 | volasertib -0.244 | [11] -0.089 | [12] -0.031

WNK4 (UniProt Q96J92)
inactive: Nexturastat A 0.363 | vemurafenib 0.248 | epoxomicin -0.187 | [9] -0.059

WASF1 (UniProt Q92558)
inactive: [1] -0.007 | [6] 0.03 | [2] -0.007 | Nexturastat A -0.059 | vemurafenib 0.003 | [7] 0.116 | [3] -0.128 | givinostat 0.019 | barasertib 0.03 | [8] 0.089 | volasertib -0.145 | [5] -0.123 | epoxomicin 0.245 | [10] 0.012 | [11] -0.003 | [9] -0.022 | rosiglitazone 0 | [4] -0.062 | [12] -0.11

VPS13A isoform 4 (UniProt Q96RL7)
inactive: [1] -0.048 | [6] 0.067 | [7] -0.107 | givinostat 0.11 | volasertib -0.085 | [10] -0.143

WWP2 (UniProt O00308)
inactive: [2] 0.164 | Nexturastat A 0.434 | epoxomicin 0.077

WARS1 (UniProt G3V227)
inactive: Nexturastat A 0.459 | vemurafenib -0.455 | barasertib 0.004 | epoxomicin -0.28 | [9] -0.045 | [4] 0.207

VIL1 (UniProt P09327)
inactive: Nexturastat A 0.011 | barasertib -0.051 | epoxomicin 0.038 | [11] 0.023 | rosiglitazone 0.023 | [12] 0.077

WDR75 (UniProt Q8IWA0)
inactive: [1] 0.007 | [6] 0.043 | [2] -0.053 | Nexturastat A 0.395 | vemurafenib -0.126 | [7] -0.069 | [3] 0.107 | barasertib 0.025 | volasertib -0.153 | [5] -0.041 | epoxomicin -0.156 | [9] -0.073 | [4] 0.166

VEGFA (UniProt H0YBI8)
inactive: [1] 0.017 | [6] -0.065 | [2] -0.118 | vemurafenib 0.037 | [7] -0.372 | [3] -0.141 | givinostat 0.104 | barasertib -0.081 | [8] 0.442 | volasertib 0.212 | [5] 0.264 | [10] 0.064 | [9] -0.144 | rosiglitazone -0.057 | [4] -0.075

VWA3B isoform 6 (UniProt Q502W6)
active: volasertib -0.631
inactive: [1] 0.104 | [6] 0.072 | [2] 0 | Nexturastat A -0.292 | vemurafenib -0.1 | [7] 0.008 | [3] -0.169 | givinostat 0.011 | barasertib 0.057 | [8] -0.038 | [5] -0.203 | epoxomicin -0.262 | [11] -0.125 | [9] -0.007 | [4] -0.023 | [12] -0.234

WARS1 (UniProt G3V3P2)
inactive: [13] -0.055 | barasertib -0.255

WDFY2 (UniProt Q96P53)
inactive: vemurafenib 0.066 | givinostat 0.138 | [10] -0.168 | [9] -0.072 | [4] -0.002

VPS54 (UniProt Q9P1Q0)
inactive: vemurafenib 0.117 | givinostat 0.191 | [8] 0.097 | [10] -0.129 | [9] 0.193

VDAC2 (UniProt Q5JSD1)
inactive: [1] 0.065 | [6] -0.086 | Nexturastat A -0.055 | [7] -0.073 | [3] -0.239 | barasertib 0.047 | volasertib 0.036 | [5] -0.337 | epoxomicin -0.215

WDR19 (UniProt Q8NEZ3)
inactive: [1] -0.016 | [6] 0.107 | vemurafenib -0.274 | [7] -0.142 | barasertib -0.028 | [8] -0.004 | volasertib 0.24 | [9] -0.117 | rosiglitazone 0.004 | [4] -0.097

WDR83 (UniProt Q9BRX9)
inactive: givinostat -0.132 | [10] -0.036

VWF (UniProt P04275)
inactive: [2] 0.157

VLDLR (UniProt P98155)
inactive: [13] -0.108 | Nexturastat A 0.081 | [3] -0.009 | [5] -0.024 | epoxomicin 0.049 | [11] 0.081 | [12] -0.277

VMA21 isoform 2 (UniProt Q3ZAQ7)
inactive: [6] 0.166 | [2] 0.099 | Nexturastat A 0.128 | [7] 0.305 | [3] -0.048 | givinostat -0.045 | barasertib 0.048 | [8] 0.168 | volasertib -0.055 | [5] 0 | epoxomicin 0.108 | [10] 0.055 | [11] 0.004 | rosiglitazone -0.021 | [4] -0.017 | [12] 0.319
